# Data: the supplement of paper PMC12067093, “Discovery and optimisation of a covalent ligand for TRIM25 and its application to targeted protein ubiquitination” (Chemical Science, 2025)
# Protein sequences, listed by entry. Tags and fused reporters are not part of them. Lines headed by an entry give the natural chain unless they say otherwise; changes in a name come on top.
# UniProt Q9Y263: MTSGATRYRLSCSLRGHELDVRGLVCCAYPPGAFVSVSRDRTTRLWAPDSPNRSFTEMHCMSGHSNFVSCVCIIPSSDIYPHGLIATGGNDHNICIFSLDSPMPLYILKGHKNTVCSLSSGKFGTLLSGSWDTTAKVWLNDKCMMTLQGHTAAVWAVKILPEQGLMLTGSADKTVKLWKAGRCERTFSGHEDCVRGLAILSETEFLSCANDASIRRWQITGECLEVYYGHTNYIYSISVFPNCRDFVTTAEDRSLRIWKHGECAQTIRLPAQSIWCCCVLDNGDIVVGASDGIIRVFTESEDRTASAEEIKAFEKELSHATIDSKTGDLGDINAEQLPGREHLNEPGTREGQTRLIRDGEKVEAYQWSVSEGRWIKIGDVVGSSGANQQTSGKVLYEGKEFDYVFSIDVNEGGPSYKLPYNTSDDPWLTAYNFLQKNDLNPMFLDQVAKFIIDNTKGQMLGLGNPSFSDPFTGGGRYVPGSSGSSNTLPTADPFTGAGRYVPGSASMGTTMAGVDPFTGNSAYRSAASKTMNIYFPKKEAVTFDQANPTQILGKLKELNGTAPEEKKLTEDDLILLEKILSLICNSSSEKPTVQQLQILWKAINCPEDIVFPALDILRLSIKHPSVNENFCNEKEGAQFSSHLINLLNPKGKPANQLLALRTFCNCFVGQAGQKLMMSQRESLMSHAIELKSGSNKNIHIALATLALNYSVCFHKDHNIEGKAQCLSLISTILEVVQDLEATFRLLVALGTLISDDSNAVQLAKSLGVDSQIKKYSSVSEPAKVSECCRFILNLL
# UniProt Q86T03: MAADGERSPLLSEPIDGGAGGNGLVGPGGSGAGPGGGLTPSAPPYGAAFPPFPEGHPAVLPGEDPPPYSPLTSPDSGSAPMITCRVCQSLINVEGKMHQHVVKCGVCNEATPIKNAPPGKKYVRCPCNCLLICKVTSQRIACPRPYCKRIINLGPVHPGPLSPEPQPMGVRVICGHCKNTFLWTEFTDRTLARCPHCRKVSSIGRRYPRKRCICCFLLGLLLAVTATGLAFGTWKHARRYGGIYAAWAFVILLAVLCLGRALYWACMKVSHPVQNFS
# UniProt P53350, whole entry, looked up: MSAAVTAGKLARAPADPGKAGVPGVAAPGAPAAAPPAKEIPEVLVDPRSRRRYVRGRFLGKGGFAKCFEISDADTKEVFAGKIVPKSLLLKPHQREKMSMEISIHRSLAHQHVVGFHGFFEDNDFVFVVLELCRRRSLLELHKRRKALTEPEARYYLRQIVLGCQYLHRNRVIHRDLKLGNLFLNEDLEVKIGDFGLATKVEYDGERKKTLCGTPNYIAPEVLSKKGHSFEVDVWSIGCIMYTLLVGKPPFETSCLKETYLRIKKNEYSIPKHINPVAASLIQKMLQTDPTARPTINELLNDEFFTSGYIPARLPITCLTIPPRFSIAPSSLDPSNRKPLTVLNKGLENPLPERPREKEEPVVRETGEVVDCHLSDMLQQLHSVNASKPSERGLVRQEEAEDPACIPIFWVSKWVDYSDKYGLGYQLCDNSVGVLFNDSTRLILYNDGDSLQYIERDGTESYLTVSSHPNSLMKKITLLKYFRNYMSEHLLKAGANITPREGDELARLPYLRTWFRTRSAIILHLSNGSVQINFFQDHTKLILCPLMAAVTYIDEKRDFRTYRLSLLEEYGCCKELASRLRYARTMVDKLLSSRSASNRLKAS
# UniProt Q9Y2I7: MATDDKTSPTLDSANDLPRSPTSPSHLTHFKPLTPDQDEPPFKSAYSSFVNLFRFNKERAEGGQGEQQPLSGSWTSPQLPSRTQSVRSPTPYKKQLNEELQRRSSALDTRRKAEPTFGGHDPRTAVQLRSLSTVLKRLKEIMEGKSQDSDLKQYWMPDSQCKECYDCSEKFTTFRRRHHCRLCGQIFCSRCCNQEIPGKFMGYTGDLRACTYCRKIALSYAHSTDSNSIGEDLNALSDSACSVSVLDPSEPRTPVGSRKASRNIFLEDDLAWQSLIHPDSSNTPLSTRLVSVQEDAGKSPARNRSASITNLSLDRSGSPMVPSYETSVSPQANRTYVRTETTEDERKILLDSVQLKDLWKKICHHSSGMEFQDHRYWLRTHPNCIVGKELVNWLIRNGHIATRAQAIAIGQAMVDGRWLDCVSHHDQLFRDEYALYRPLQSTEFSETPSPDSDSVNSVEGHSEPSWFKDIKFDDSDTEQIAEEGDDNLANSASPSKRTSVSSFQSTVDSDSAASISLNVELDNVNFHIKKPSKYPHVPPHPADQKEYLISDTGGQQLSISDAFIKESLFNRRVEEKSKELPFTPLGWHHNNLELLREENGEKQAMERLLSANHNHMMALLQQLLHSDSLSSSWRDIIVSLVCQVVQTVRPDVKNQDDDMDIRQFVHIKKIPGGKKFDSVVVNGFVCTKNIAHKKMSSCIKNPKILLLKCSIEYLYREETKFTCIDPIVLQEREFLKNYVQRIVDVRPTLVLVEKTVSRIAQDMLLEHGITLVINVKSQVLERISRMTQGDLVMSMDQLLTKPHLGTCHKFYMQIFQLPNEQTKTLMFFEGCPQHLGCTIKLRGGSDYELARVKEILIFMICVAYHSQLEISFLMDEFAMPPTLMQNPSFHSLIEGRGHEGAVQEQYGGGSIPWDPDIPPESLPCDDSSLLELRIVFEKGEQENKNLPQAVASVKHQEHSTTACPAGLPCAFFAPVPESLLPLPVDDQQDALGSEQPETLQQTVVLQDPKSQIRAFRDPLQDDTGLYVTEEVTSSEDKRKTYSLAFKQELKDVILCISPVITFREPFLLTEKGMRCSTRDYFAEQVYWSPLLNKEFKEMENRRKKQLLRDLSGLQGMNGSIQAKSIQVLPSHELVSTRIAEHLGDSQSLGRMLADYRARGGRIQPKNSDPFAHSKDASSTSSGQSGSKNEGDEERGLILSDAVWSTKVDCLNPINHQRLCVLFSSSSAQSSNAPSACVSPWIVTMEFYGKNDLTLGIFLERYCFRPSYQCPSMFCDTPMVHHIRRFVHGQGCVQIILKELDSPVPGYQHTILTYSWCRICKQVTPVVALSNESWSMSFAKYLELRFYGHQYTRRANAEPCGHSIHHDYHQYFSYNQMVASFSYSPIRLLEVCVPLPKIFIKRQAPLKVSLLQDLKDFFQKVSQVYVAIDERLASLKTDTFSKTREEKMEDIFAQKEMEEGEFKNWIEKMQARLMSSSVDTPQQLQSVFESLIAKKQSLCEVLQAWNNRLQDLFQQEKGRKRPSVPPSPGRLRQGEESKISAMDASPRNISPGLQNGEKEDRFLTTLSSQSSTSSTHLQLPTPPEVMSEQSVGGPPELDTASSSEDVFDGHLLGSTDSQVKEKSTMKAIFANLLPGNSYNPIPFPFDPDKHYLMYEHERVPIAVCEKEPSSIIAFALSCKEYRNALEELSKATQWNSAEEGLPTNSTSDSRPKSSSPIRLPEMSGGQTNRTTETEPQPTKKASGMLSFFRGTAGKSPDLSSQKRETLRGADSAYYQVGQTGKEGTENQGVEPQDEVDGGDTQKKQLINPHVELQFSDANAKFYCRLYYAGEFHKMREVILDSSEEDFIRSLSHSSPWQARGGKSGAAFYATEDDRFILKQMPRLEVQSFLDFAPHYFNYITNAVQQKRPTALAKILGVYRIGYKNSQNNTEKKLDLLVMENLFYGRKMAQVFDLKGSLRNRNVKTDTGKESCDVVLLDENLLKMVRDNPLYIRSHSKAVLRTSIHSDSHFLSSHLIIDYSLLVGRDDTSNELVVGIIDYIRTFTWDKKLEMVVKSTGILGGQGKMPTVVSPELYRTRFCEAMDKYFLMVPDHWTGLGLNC
# UniProt Q10713: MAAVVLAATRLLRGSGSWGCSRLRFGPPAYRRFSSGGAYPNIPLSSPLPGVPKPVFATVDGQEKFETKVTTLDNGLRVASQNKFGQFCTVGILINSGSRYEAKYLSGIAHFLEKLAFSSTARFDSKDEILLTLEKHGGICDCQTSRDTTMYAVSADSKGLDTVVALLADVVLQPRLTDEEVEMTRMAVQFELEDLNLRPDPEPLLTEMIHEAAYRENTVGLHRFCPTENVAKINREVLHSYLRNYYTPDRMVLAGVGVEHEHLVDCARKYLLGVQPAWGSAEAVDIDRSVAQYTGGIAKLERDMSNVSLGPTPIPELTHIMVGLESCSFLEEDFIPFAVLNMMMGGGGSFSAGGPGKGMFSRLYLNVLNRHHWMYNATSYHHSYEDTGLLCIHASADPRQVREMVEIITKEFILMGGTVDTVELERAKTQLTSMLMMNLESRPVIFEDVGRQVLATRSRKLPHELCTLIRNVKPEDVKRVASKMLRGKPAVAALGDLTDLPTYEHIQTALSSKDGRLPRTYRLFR
# UniProt O00443: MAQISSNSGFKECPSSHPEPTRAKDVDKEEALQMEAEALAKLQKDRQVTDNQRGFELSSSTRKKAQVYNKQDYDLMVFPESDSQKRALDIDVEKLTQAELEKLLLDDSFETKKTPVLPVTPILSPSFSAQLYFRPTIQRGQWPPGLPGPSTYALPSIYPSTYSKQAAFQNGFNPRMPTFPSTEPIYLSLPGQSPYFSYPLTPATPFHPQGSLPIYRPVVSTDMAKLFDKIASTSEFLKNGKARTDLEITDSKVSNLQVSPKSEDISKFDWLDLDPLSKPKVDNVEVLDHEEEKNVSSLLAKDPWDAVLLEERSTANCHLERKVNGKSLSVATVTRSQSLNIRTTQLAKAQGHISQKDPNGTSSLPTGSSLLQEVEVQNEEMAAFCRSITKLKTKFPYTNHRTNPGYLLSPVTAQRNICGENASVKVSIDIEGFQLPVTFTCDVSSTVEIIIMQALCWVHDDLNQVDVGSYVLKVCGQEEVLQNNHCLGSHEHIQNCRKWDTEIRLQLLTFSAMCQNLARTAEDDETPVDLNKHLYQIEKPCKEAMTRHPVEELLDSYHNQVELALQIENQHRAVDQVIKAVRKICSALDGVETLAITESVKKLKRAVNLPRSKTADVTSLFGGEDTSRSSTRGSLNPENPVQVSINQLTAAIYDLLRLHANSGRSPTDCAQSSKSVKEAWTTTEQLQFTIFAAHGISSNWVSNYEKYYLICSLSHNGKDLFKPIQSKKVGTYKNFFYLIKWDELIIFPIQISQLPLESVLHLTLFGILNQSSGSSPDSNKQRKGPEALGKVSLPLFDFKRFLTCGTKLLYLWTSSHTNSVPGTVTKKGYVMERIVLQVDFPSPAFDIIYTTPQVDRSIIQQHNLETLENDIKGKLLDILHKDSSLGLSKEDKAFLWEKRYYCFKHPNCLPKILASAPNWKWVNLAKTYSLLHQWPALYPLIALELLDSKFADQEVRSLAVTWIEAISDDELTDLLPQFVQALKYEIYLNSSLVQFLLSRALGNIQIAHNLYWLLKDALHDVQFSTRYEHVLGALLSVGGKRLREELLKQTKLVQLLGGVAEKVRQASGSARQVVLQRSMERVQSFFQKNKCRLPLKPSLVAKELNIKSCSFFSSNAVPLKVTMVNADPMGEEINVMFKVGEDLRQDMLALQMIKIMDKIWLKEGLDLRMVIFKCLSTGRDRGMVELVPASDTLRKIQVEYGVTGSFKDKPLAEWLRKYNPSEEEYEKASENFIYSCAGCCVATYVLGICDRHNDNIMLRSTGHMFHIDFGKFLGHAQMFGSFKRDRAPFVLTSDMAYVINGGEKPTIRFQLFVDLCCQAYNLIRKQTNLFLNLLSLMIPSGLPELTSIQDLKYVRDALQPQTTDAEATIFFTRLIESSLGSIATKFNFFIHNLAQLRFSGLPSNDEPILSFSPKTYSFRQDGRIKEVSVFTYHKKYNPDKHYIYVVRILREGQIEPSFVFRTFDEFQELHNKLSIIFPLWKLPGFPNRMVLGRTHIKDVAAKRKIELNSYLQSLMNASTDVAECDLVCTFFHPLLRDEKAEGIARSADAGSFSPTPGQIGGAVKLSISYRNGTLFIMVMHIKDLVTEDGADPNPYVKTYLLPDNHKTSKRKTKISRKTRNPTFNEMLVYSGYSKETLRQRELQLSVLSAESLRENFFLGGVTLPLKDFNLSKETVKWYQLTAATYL
# UniProt P14618, whole entry, looked up: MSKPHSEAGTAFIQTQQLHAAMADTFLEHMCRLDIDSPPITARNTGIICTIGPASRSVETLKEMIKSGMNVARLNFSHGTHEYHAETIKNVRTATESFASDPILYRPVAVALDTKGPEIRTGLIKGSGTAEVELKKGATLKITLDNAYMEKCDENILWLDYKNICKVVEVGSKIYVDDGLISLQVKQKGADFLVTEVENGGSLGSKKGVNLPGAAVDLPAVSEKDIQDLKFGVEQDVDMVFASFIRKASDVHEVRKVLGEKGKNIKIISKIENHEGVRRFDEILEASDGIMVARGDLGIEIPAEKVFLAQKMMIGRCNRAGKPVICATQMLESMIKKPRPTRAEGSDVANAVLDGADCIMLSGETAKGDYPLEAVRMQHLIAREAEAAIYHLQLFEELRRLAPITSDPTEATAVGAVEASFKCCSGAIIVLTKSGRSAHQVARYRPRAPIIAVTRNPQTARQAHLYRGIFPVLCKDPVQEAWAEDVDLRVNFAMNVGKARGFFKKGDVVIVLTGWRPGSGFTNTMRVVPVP
# The list shows a part of the results.
# Compound: CC1Cc2ccccc2N1C(=O)C1CCCN(C1)C(=O)CCl (mixture of isomers) [TRIM25 ligand 11 (diastereomer mixture)]
# Assay: probe-labelled cysteine peptide fold change vs DMSO (competition) (log2 fold change); higher = less target engagement (more negative = stronger competition)
# Conditions: 10 µM; THP-1; incubation time: 4 h
# 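Note: competitive chemoproteomic profiling in live THP-1 cells with an iodoacetamide desthiobiotin (IA-DTB) probe, comparing probe-labelled peptide intensities in compound-treated cells against DMSO-treated controls.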
row,Target,probe-labelled cysteine peptide fold change
1,PLEC_Q15149_1136_LQLEACETR (UniProt Q15149),-0.0517
2,PML_P29590_227_CDISAEIQQR (UniProt P29590),-0.0239
3,PLAA_Q9Y263_208_GLAILSETEFLSCANDASIR (UniProt Q9Y263),0.14
4,PIP4P1_Q86T03_177_VICGHCK (UniProt Q86T03),-0.00656
5,PITPNM1_O00562_889_ERPQLAECEEPSIYSPAFPR (UniProt O00562),0.225
6,PLS3_P13797_167_AVGDGIVLCK (UniProt P13797),-0.157
7,PLEKHF1_Q96S99_129_QEWISHIEECVR (UniProt Q96S99),0.139
8,PLAA_Q9Y263_208_GLAILSETEFLSCANDASIRR (UniProt Q9Y263),-0.0869
9,PLK1_P53350_544_LILCPLMAAVTYIDEKR (UniProt P53350),-0.228
10,PIN1_Q13526_57_CSHLLVK (UniProt Q13526),-0.0441
11,PLCG2_P16885_1090_SIACPFVEVEICGAEYDNNK (UniProt P16885),-0.123
12,PIR_O00625_79_GFETVSYLLEGGSMAHEDFCGHTGK (UniProt O00625),-0.0378
13,PIKFYVE_Q9Y2I7_831_TLMFFEGCPQHLGCTIK (UniProt Q9Y2I7),-0.0789
14,PLXNB2_O15031_1504+1506_GQPCSCWPRPDSVVLEWRPGSTAQILSDLDLTSQR (UniProt O15031),0.212
15,PLEK_P08567_59_GSTLTSPCQDFGK (UniProt P08567),-0.0148
16,PLEC_Q15149_3110_LCFEGLR (UniProt Q15149),-0.267
17,PML_P29590_140+143_ESADFWCFECEQLLCAK (UniProt P29590),0.0457
18,PLCG1_P19174_417_EHAFVASEYPVILSIEDHCSIAQQR (UniProt P19174),-0.304
19,PMPCA_Q10713_142_HGGICDCQTSR (UniProt Q10713),-0.00383

row,Target,probe-labelled cysteine peptide fold change
1,PLRG1_O43660_272_CWDLEYNK (UniProt O43660),-0.0476
2,PLEC_Q15149_317_CDNFTSSWR (UniProt Q15149),0.0602
3,PKN2_Q16513_394_TDDLSNDVCAVLK (UniProt Q16513),-0.138
4,PLCB2_Q00722_1001_QGEEQYECVLK (UniProt Q00722),-0.137
5,PIK3C2A_O00443_541_HLYQIEKPCK (UniProt O00443),-0.358
6,PLCG2_P16885_791_RSDELSFCR (UniProt P16885),-0.131
7,PMPCB_O75439_389_LCTSVTESEVAR (UniProt O75439),0.204
8,PLAA_Q9Y263_631_HPSVNENFCNEK (UniProt Q9Y263),0.22
9,PLEC_Q15149_950_GRLPLLAVCDYK (UniProt Q15149),-0.185
10,PML_P29590_189_TNNIFCSNPNHR (UniProt P29590),-0.0305
11,PKM_P14618_474_GIFPVLCK (UniProt P14618),-0.00513
12,PLCG2_P16885_409_DHAFVTSSFPVILSIEEHCSVEQQR (UniProt P16885),0.179
13,PKN1_Q16512_662_KGDIVARDEVESLMCEK (UniProt Q16512),-0.0633
14,PLEC_Q15149_992_VLSSSGSEAAVPSVCFLVPPPNQEAQEAVTRLEAQHQALVTLWHQLHVDMK (UniProt Q15149),-0.415
15,PLEK_P08567_295_GCVVTSVESNSNGR (UniProt P08567),-0.156
16,PLIN3_O60664_341_DIAQQLQATCTSLGSSIQGLPTNVK (UniProt O60664),-0.0581
17,PLCB2_Q00722_1108_QAACLEQIR (UniProt Q00722),0.0693
18,PML_P29590_151_CFEAHQWFLK (UniProt P29590),-0.0245
19,PLXND1_Q9Y4D7_345_KLTESYIQLGLQCAGGAGR (UniProt Q9Y4D7),-0.0112

# Same assay, conditions: 50 µM; THP-1; incubation time: 4 h
row,Target,probe-labelled cysteine peptide fold change
1,PLEC_Q15149_1136_LQLEACETR (UniProt Q15149),0.0738
2,PML_P29590_227_CDISAEIQQR (UniProt P29590),-0.000233
3,PLAA_Q9Y263_208_GLAILSETEFLSCANDASIR (UniProt Q9Y263),0.0261
4,PIP4P1_Q86T03_177_VICGHCK (UniProt Q86T03),0.0984
5,PITPNM1_O00562_889_ERPQLAECEEPSIYSPAFPR (UniProt O00562),0.124
6,PLS3_P13797_167_AVGDGIVLCK (UniProt P13797),0.124
7,PLEKHF1_Q96S99_129_QEWISHIEECVR (UniProt Q96S99),0.265
8,PLAA_Q9Y263_208_GLAILSETEFLSCANDASIRR (UniProt Q9Y263),-0.00897
9,PLK1_P53350_544_LILCPLMAAVTYIDEKR (UniProt P53350),0.028
10,PIN1_Q13526_57_CSHLLVK (UniProt Q13526),-0.111
11,PLCG2_P16885_1090_SIACPFVEVEICGAEYDNNK (UniProt P16885),0.0206
12,PIR_O00625_79_GFETVSYLLEGGSMAHEDFCGHTGK (UniProt O00625),-0.172
13,PIKFYVE_Q9Y2I7_831_TLMFFEGCPQHLGCTIK (UniProt Q9Y2I7),-0.0387
14,PLXNB2_O15031_1504+1506_GQPCSCWPRPDSVVLEWRPGSTAQILSDLDLTSQR (UniProt O15031),0.152
15,PLEK_P08567_59_GSTLTSPCQDFGK (UniProt P08567),0.0238
16,PLEC_Q15149_3110_LCFEGLR (UniProt Q15149),-0.465
17,PML_P29590_140+143_ESADFWCFECEQLLCAK (UniProt P29590),-0.0346
18,PLCG1_P19174_417_EHAFVASEYPVILSIEDHCSIAQQR (UniProt P19174),0.251
19,PMPCA_Q10713_142_HGGICDCQTSR (UniProt Q10713),0.228

row,Target,probe-labelled cysteine peptide fold change
1,PLRG1_O43660_272_CWDLEYNK (UniProt O43660),0.119
2,PLEC_Q15149_317_CDNFTSSWR (UniProt Q15149),0.256
3,PKN2_Q16513_394_TDDLSNDVCAVLK (UniProt Q16513),-0.0681
4,PLCB2_Q00722_1001_QGEEQYECVLK (UniProt Q00722),-0.0186
5,PIK3C2A_O00443_541_HLYQIEKPCK (UniProt O00443),-0.353
6,PLCG2_P16885_791_RSDELSFCR (UniProt P16885),0.0263
7,PMPCB_O75439_389_LCTSVTESEVAR (UniProt O75439),0.199
8,PLAA_Q9Y263_631_HPSVNENFCNEK (UniProt Q9Y263),-0.0586
9,PLEC_Q15149_950_GRLPLLAVCDYK (UniProt Q15149),0.0516
10,PML_P29590_189_TNNIFCSNPNHR (UniProt P29590),-0.159
11,PKM_P14618_474_GIFPVLCK (UniProt P14618),0.0371
12,PLCG2_P16885_409_DHAFVTSSFPVILSIEEHCSVEQQR (UniProt P16885),0.167
13,PKN1_Q16512_662_KGDIVARDEVESLMCEK (UniProt Q16512),0.00513
14,PLEC_Q15149_992_VLSSSGSEAAVPSVCFLVPPPNQEAQEAVTRLEAQHQALVTLWHQLHVDMK (UniProt Q15149),-0.207
15,PLEK_P08567_295_GCVVTSVESNSNGR (UniProt P08567),0.00951
16,PLIN3_O60664_341_DIAQQLQATCTSLGSSIQGLPTNVK (UniProt O60664),-0.0803
17,PLCB2_Q00722_1108_QAACLEQIR (UniProt Q00722),0.23
18,PML_P29590_151_CFEAHQWFLK (UniProt P29590),-0.0707
19,PLXND1_Q9Y4D7_345_KLTESYIQLGLQCAGGAGR (UniProt Q9Y4D7),0.124
